Publication PMC10003616
No constants are given. Whether binding was seen depends on the method and setting. A result given as binding can be weak or reduced; the word gives no strength.

Biological target: TaVAMP723-3B (Triticum aestivum (wheat))
Assay: two-hybrid; MatchMaker Y2H system (Clontech); BD fusions in pGBKT7, AD fusions in pGADT7; both orientations; ten-fold serial dilutions spotted on SD/-Leu-Trp and SD/-Leu-Trp-Ade-His, 30 °C, 4 days

## TaSYP137-5B (from UniProt A0A3B6LHZ2)
  binding: binds
